37 targets from the supplement of paper PMC12819154, “High-throughput peptide-centric local stability assay extends protein–ligand identification to membrane proteins, tissues and bacteria” (Nature Structural & Molecular Biology, 2025) can be followed below.

Amino acid sequences for entries named in this document (tags omitted). A change or cut given only in a name is not applied to a line headed by its entry.
UniProt P21440, whole entry: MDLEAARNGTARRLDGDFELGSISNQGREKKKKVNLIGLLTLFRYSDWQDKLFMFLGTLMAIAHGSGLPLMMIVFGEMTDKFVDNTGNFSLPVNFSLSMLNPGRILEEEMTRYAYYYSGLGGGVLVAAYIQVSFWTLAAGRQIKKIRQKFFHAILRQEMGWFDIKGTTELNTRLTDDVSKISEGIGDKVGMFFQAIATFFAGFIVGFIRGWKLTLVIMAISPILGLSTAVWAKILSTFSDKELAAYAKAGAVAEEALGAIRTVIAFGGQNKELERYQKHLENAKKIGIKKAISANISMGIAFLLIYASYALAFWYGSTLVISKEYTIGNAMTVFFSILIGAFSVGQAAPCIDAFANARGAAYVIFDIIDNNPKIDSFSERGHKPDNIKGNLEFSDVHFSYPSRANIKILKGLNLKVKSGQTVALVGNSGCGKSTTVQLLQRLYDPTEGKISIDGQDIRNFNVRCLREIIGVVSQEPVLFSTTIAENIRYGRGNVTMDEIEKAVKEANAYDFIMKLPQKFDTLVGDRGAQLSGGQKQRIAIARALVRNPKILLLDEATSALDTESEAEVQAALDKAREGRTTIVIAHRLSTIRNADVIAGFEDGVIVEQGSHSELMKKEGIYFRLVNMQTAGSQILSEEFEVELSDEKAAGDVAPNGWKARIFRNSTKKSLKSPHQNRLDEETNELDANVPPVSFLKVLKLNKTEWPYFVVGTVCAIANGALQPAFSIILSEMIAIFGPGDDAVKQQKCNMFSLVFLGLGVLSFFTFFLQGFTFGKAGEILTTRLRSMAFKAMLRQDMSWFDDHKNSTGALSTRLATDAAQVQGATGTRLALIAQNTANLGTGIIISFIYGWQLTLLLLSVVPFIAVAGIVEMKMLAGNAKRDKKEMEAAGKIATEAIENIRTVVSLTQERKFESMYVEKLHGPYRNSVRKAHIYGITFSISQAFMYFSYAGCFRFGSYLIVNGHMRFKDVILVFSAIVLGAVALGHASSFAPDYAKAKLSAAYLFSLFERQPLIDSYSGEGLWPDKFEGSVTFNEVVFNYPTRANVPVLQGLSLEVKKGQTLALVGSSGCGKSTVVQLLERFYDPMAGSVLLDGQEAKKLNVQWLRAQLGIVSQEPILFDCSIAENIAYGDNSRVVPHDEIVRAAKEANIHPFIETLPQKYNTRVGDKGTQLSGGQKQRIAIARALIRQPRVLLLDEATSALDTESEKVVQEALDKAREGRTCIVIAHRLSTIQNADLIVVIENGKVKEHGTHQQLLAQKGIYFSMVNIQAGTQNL
UniProt P14152: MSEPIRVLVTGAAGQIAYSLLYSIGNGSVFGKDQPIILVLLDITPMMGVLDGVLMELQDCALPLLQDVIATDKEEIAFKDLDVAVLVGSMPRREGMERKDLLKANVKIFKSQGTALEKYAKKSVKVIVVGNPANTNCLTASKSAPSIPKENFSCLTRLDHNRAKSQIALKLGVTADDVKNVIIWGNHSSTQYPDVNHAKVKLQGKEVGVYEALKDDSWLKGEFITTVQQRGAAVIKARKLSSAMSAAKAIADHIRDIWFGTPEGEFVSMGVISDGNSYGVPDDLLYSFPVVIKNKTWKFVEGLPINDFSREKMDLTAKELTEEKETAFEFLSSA
UniProt P16294, whole entry: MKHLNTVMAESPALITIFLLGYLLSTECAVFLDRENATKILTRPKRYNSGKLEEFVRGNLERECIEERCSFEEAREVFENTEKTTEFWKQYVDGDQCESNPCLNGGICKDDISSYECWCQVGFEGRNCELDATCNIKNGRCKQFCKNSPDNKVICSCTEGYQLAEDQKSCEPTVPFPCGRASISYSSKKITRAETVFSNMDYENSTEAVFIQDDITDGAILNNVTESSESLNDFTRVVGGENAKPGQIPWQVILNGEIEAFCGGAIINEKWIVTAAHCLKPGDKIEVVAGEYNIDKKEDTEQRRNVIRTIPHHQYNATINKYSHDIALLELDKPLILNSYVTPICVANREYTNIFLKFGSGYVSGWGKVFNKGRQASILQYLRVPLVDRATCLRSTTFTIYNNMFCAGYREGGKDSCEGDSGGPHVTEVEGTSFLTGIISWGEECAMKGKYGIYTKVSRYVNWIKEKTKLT
UniProt P14429: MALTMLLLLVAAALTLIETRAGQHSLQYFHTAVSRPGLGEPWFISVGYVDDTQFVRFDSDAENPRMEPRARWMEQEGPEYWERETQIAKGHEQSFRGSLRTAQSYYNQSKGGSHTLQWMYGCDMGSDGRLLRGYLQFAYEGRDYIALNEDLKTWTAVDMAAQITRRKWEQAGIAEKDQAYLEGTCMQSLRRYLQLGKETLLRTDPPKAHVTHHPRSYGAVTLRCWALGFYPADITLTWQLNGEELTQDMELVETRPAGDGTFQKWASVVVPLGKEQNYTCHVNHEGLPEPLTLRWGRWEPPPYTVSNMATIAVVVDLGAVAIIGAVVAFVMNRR
UniProt P10833: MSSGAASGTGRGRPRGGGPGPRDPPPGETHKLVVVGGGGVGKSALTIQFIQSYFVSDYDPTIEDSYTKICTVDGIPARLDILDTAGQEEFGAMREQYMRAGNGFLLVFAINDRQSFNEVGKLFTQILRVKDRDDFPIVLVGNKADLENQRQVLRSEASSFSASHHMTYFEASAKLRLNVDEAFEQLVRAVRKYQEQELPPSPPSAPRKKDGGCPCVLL
UniProt P17225: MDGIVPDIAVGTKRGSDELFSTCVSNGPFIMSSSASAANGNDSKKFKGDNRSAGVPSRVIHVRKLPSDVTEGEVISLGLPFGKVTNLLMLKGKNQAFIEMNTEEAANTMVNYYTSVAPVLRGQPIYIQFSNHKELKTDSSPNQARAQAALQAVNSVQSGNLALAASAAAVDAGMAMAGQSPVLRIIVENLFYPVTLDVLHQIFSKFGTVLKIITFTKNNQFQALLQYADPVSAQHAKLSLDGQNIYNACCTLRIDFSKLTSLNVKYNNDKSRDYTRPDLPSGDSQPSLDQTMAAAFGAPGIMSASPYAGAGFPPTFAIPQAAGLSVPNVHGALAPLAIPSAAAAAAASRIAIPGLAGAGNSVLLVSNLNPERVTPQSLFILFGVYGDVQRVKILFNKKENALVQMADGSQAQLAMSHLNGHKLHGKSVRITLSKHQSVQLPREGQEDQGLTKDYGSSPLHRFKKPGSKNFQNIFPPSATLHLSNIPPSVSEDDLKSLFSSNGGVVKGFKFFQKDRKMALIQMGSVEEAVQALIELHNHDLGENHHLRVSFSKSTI
UniProt P18760, whole entry: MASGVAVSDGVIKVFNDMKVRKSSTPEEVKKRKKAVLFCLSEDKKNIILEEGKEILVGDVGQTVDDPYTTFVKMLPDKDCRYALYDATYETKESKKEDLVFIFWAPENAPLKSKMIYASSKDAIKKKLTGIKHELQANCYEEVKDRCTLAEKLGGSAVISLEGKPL
UniProt P17710: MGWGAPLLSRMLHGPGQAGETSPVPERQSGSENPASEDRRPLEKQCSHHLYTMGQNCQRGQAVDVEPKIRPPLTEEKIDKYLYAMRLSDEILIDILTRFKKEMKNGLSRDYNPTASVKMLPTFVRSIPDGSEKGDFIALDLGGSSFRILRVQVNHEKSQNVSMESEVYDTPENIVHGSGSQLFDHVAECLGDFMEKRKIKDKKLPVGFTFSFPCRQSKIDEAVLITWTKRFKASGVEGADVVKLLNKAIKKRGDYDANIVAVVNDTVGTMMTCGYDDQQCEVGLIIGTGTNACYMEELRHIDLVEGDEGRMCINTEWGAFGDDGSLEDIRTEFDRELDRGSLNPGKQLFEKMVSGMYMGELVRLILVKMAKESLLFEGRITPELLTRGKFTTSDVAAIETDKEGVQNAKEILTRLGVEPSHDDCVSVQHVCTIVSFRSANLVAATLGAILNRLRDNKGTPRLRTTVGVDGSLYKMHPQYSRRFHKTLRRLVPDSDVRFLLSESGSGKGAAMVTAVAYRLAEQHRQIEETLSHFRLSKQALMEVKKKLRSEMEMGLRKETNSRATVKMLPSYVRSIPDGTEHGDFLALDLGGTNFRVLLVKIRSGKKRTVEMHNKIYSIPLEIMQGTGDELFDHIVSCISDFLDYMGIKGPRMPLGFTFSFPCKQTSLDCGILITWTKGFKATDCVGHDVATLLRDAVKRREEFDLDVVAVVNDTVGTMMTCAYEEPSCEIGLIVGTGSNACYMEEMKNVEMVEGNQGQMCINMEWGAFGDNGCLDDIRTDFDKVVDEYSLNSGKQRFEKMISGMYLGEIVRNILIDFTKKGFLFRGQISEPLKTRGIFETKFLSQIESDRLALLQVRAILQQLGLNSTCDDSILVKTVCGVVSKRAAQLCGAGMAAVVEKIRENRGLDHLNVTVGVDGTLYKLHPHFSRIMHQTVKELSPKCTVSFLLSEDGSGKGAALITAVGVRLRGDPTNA
UniProt P0DJF2: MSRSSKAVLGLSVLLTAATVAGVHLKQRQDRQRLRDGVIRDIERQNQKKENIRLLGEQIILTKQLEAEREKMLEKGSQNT
UniProt P06537: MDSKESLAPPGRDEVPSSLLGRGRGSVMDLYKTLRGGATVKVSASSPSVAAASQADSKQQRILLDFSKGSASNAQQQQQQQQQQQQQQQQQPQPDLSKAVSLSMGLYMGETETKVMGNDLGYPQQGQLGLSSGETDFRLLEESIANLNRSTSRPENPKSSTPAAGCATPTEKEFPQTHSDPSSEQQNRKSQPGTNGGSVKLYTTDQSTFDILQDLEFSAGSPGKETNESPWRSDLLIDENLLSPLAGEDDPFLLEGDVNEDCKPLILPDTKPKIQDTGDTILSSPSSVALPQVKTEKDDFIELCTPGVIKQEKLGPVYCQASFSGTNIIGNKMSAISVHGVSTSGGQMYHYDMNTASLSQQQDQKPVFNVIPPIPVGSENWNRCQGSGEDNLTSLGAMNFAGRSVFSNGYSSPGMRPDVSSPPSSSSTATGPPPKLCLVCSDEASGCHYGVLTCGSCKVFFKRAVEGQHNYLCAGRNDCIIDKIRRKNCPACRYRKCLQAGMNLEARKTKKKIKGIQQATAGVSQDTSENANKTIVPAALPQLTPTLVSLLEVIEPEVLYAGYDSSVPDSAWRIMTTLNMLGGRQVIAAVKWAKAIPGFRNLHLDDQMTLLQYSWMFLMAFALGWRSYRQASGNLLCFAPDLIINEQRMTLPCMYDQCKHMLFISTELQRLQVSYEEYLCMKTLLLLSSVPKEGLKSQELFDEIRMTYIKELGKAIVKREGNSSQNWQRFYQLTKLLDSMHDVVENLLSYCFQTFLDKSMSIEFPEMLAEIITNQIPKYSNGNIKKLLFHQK
UniProt P21981: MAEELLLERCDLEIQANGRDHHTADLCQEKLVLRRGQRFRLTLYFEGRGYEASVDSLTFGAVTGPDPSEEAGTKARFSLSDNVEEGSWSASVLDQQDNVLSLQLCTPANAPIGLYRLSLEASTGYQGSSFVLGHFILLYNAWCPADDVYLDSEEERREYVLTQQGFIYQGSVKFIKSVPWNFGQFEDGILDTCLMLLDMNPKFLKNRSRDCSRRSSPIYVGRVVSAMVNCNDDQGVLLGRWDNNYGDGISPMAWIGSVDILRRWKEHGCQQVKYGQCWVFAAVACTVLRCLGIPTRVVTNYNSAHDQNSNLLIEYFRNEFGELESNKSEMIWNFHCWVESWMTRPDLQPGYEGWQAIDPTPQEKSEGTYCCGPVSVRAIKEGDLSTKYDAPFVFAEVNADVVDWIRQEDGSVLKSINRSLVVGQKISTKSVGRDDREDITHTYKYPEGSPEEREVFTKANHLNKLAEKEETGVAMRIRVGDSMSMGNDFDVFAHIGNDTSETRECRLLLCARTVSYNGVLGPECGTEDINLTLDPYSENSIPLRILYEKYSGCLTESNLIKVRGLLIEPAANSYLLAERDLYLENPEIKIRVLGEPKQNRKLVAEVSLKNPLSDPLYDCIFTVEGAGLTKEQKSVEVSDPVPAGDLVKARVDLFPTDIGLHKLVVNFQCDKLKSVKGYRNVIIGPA
UniProt P14685, whole entry: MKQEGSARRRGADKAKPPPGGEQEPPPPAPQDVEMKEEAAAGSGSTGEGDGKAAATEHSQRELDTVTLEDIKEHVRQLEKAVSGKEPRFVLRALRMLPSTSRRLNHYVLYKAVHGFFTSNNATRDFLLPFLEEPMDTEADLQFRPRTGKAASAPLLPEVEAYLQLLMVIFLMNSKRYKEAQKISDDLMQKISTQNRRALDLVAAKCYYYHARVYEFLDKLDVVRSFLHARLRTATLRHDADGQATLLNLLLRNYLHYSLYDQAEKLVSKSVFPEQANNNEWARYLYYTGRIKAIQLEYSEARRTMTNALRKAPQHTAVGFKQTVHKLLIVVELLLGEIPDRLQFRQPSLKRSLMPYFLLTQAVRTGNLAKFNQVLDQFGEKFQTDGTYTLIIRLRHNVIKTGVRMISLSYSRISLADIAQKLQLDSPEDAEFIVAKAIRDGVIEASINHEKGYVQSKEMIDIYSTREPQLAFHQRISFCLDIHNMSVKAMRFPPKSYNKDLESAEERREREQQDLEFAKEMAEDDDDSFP
UniProt P15532, whole entry: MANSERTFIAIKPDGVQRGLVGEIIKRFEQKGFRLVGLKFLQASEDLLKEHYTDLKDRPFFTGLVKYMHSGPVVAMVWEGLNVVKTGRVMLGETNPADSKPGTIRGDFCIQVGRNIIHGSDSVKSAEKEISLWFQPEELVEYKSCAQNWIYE

Some of the results follow. Most values lie at the level of the controls, where differences are scatter.

Compound in this assay: CN[C@@H]1C[C@H]2O[C@@](C)([C@@H]1OC)n1c3ccccc3c3c4c(c5c6ccccc6n2c5c31)C(=O)NC4 [staurosporine]
The assay is described as follows: log2 fold change of pooled soluble protein (PISA), ligand vs vehicle (log2 ratio); higher = more thermally stabilized. As to conditions: ligand concentration: 20 uM; assay format: PISA pool 52.9/55.5/58.6 C.
Consider UniProt P16460, for which the “log2 fold change of pooled soluble protein” value (shortened to “log2 fold change”) was 0.0323.
Regarding UniProt P08101, the “log2 fold change” value was 0.0464.
As to UniProt P21440, the “log2 fold change” value is 0.0917.
Take UniProt P26041: the “log2 fold change” value turned out to be 0.00136.
For UniProt P14152, the “log2 fold change” value is -0.0159.
On to UniProt P15508, for which the “log2 fold change” value is -0.099.
Take UniProt P01901: the “log2 fold change” value is -0.026.
Consider UniProt P15105, for which the “log2 fold change” value turned out to be 0.0762.
As for UniProt P16294, the “log2 fold change” value is -0.0111.
Then UniProt P14429, with -0.0582.
Take UniProt P17563: the “log2 fold change” value amounted to 0.0997.
As to P0C0S6;Q3THW5, the “log2 fold change” value was -0.0203.
Turning to UniProt P09813, the “log2 fold change” value was -0.031.
For the target UniProt P10833, the “log2 fold change” value was 0.0148.
On to UniProt P27546, for which the “log2 fold change” value was 0.0232.
UniProt P17225: the “log2 fold change” value is -0.0908.
For UniProt P18760, the “log2 fold change” value is -0.133.
Turning to UniProt P16406, the “log2 fold change” value worked out at 0.0209.
Then UniProt P17710, with -0.0387.
As for UniProt P21614, the “log2 fold change” value was -0.185.
Consider UniProt P23780, for which the “log2 fold change” value came to 0.0511.
For the target UniProt P0DJF2, the “log2 fold change” value is -0.0753.
Take UniProt P18242: the “log2 fold change” value is -0.00323.
Consider UniProt P17426, for which the “log2 fold change” value turned out to be 0.07.
Take UniProt P14869: the “log2 fold change” value came to 0.0222.
In the case of UniProt P06537 it was 0.0166; in that of UniProt P09602, 0.0803; in that of UniProt P15920, -0.0799.
As to UniProt P21981, the “log2 fold change” value was -0.121.
Take UniProt P14873: the “log2 fold change” value is -0.36.
As to UniProt P22892, the “log2 fold change” value stood at 0.0719.
Consider UniProt P14685, for which the “log2 fold change” value is -0.000694.
With UniProt P04104, the “log2 fold change” value is -0.527.
On to UniProt P17427, for which the “log2 fold change” value was 0.0356.
Consider UniProt P16546, for which the “log2 fold change” value is -0.0236.
UniProt P14069: the “log2 fold change” value stood at 0.225.
Then UniProt P15532, with 0.182.
